What all share (assay type): cell-based
In assay [1] the test system is HT-29 human colon adenocarcinoma cells. Kind of assay: MTT cell growth inhibition, HT-29. The settings on record: 24 h, Colon HT-29, mean ± SEM of three determinations.
In assay [2] the test system is HCT-15 human colon adenocarcinoma cells. Kind of assay: MTT cell growth inhibition, HCT 15. Particulars: 24 h, Colon HCT 15, mean ± SEM of three determinations.
Assay [3] relates to SW-480 human colon adenocarcinoma cells. Kind of assay: MTT cell growth inhibition, SW480. The settings on record: 24 h, mean ± SEM of three determinations.

This passage reports IC50 results from patent publication US10023555B2, “NSAIDs derivatives and uses thereof” (Research Foundation of The City University of New York, priority 2013, dated 2018).

Consider `COc1ccc2cc([C@H](C)C(=O)O)ccc2c1` [NAP, naproxen, reference compound], for which the IC50 in assay [1] came out at 2800 µM; in assay [2], 2950 µM; in assay [3], 3110 µM.
